Measurements taken from PMC4721152.
No constants are given. Whether binding was seen depends on the method and setting. Some binding calls cover weakened binding; strength is not graded here.

Amino acid sequences for entries named in this document (tags omitted). A change or cut given only in a name is not applied to a line headed by its entry. Chains listed by the source or under a name are the forms on record and can include a tag or linker. Residues count along the entry.
UniProt P19338: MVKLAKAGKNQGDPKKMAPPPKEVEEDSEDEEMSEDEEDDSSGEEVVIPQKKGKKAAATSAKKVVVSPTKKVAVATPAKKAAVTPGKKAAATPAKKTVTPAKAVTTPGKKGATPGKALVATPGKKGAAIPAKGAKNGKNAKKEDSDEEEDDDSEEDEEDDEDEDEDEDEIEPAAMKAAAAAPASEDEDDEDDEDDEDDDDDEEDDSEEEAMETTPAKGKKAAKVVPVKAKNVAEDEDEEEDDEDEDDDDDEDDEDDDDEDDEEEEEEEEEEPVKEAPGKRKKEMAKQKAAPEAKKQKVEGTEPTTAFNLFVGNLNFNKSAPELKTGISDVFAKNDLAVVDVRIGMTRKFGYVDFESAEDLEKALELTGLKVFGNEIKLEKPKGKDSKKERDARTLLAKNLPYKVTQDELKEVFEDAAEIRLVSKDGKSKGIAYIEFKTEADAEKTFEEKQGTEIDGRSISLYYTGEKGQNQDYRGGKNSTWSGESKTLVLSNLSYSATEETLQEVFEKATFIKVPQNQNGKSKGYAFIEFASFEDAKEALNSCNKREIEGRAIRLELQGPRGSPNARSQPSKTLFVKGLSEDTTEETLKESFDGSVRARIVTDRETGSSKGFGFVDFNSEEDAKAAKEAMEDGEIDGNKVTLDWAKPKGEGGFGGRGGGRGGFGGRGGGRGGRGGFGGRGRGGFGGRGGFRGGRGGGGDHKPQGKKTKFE
endostatin (P39060, residues 1572-1754): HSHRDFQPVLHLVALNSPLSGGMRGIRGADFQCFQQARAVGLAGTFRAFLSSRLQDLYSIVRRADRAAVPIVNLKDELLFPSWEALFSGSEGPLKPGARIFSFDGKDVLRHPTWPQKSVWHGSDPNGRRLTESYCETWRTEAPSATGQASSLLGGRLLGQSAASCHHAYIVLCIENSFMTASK
zinc-binding protein-endostatin (P39060, form named): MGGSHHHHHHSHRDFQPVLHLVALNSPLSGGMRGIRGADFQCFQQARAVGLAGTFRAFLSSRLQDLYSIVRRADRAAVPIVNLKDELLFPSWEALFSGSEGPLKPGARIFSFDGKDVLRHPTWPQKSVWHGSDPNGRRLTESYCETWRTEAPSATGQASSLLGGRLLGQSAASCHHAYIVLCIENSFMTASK

Molecular target: nucleolin-turbo green fluorescent protein (UniProt P19338)
Test: pull-down; nucleolin-tGFP immunoprecipitated from transfected HMECs with anti-tGFP antibody and Protein G beads; the beads incubated with 0.5 μg ES variant for 1 h at 4 °C; washed with lysis buffer (150 mmol/L Tris, 50 mmol/L sodium chloride, 1% NP40, pH 7.4); bead-bound proteins detected by Western blotting; both purified

Substance | binding
mono-PEGylated endostatin (from UniProt P39060 1572-1754) (domain or fragment) | binds
mono-PEGylated zinc-binding protein-endostatin (from UniProt P39060 1572-1754) (domain or fragment) | binds
zinc-binding protein-endostatin (from UniProt P39060 1572-1754) (domain or fragment) | binds
endostatin (from UniProt P39060 1572-1754) (domain or fragment) | binds
